The campaign covered roughly 190,000 compounds. About 570 (0.3%) were called active. Inconclusive means that the source gave no clear call. Such entries were picked first, then a sample of the others.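 Rule for the calls: active = z-score above 3 at 5 µM with at least 500 cells counted in the well; inconclusive = wells under 500 cells, flagged as cytotoxic or low count; inactive = the rest.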
Assay: up-regulation of insulin promoter-GFP reporter – imaging, high-content screening, mouse beta cells (AID 1625)
Settings: MIN6 insulin promoter-GFP reporter, at 5 µM, active compounds read high

Compound	z-score
CCC(=O)c1c(OCc2ccccc2)ccc2c(C)cc(=O)oc12	inactive: -0.76
O=C(c1ccc2c(c1)OCO2)N1CCCC1	active: 8.93
CC(C)(C)c1cc(CSC(=S)NC2CCS(=O)(=O)C2)c(Br)c(C(C)(C)C)c1 (centres undefined)	inactive: -0.32
C(=C\c1nnc2c3ccccc3ncn12)/c1ccccc1	inactive: 1.87
COc1ccc(-n2c(C)cc(C(=O)CSc3nnc(-c4cccs4)o3)c2C)cc1	inconclusive: -6.91
Cc1cccnc1NC(=S)NCCc1ccccc1	inactive: -1.66
CC(=O)C1=C(O)C(=O)N(c2ccc(S(=O)(=O)Nc3nccs3)cc2)C1c1ccc([N+](=O)[O-])cc1 (centres undefined)	inactive: -0.35
CC[C@]1(O)CC2CN(CCc3c([nH]c4ccccc34)[C@@](C(=O)OC)(c3cc4c(cc3OC)N(C=O)[C@H]3[C@@](O)(C(=O)OC)[C@H](OC(C)=O)[C@]5(CC)C=CCN6CC[C@]43[C@@H]65)C2)C1 (some centres undefined)	inconclusive: -2.58
Cc1nn(-c2ccccc2)c(C)c1C(=O)OCC(=O)c1c(N)n(CC(C)C)c(=O)n(C)c1=O	inconclusive: -3.79
CCN(CC)S(=O)(=O)c1ccc2oc(C(=O)NCc3ccc(C)cc3)c(C)c2c1	inactive: -1.87
O=C(N/N=C/c1cc2c3c(c1O)CCCN3CCC2)c1ccccc1O	inconclusive: -1.17
O=C(NCc1ccco1)C1CCN(S(=O)(=O)N2CCC3(CC2)OCCO3)CC1	inconclusive: -10.3
Cc1ccc(NC(=O)CCn2cccc2)cc1Cl	active: 3.23
CC1CCCCC1NC(=O)C1CCCN1S(=O)(=O)c1cccc2nsnc12 (centres undefined)	inconclusive: -1.52
COc1nc(OC)nc(N2CCC(C(=O)NCc3cccs3)CC2)n1	active: 3.48
CCCCCCN(C(=O)CCCCCN1C(=O)NC(c2ccc(-c3ccccc3)cc2)C(C(=O)OCc2ccccc2)=C1C)C(C(=O)NCCCC)c1ccc(OCC(=O)OC)c(C(=O)OC)c1 (centres undefined)	inconclusive: -0.79
O=C(Nc1cnn(Cc2ccc(F)cc2)c1)c1cc(-c2cccs2)on1	inconclusive: -3.28
Cc1nc(NC(C)c2ccccc2)c2oc3ccccc3c2n1 (centres undefined)	inconclusive: -3.49
O=C(Cn1ncn2c(cc3ccccc32)c1=O)NCc1ccco1	active: 3.78
Nc1ncnc(Nc2cc(Cl)cc(Cl)c2)c1[N+](=O)[O-]	inconclusive: -7.97
COc1ccc2nc(SCC(=O)Nc3ccc(S(=O)(=O)N4CCCC4)cc3)c(C#N)cc2c1	active: 3.47
Cc1ccc(NC(=S)NNc2ncc(C(F)(F)F)cc2Cl)c(C)c1	inactive: -0.45
CCOCCN1CCN(c2c(CC)c(C)nc3cc(-c4cc(OC)cc(OC)c4)nn23)CC1	inconclusive: -3.75

Compound	z-score
COC(=O)C1CCCN1S(=O)(=O)c1ccc2ccccc2c1 (centres undefined)	inconclusive: -6.08
O=C1C(Cl)=C(NCCN2CCCCC2)C(=O)c2ccccc21	inconclusive: -6.88
CCN(CC)c1ccc2cc(C#N)c(=O)oc2c1	active: 4.24
COc1ccc(NC(=O)N2CCN(c3nc(-c4cccc(OC)c4)cs3)CC2)cc1	inconclusive: -1.03
Cc1ccc(-c2nc(C(Cl)Cl)c3ccccc3n2)cc1	inconclusive: -5.45
COc1ccccc1N(C(=O)c1ccncc1)c1nc(-c2ccc([N+](=O)[O-])cc2)cs1	inactive: -0.15
Cc1cc(C)c2nc(NNC(=O)c3cc(-c4cccs4)nc4ccccc34)sc2c1	active: 3.73
Cc1ccc(-c2cc(N)n(-c3ccccc3)n2)cc1	active: 5.28
Nc1c(Cl)ncnc1N/N=C/c1ccccn1	inconclusive: -2.28
COc1ccc(C2=NOC(CNC(N)=S)C2)cc1 (centres undefined)	inactive: -0.1
Cc1ccc(NC(=O)/C(C#N)=C/c2ccccc2C(F)(F)F)cc1	inactive: 0.35
CCc1cccc(C)c1NC(=O)CNCc1ccccc1	inactive: 0.93
CN(c1ccccc1)c1nc(N)c([N+](=O)[O-])c(N2CCCCC2)n1	inactive: -1.12
CCN(CC)c1ccc(/C=C(\C#N)c2nc(-c3cccs3)c(NC(C)=O)s2)cc1	active: 16.9
CC1CC(C)CN(C(=O)c2cccc3c2-c2ccccc2C3=O)C1 (centres undefined)	active: 3.97
CC(=O)c1c(C)n(C)c2ccc(OC(=O)c3ccc([N+](=O)[O-])cc3)cc12	inactive: 0.8
CC[n+]1c(/C=C(\C)OC)sc2ccccc21	inactive: 0.09
COc1ccc(C(=O)N2CCN(c3ccc([N+](=O)[O-])c(NCCc4ccc(OC)c(OC)c4)c3)CC2)cc1	inconclusive: -1.01
CCN(CC)c1ccc(/C=N/NC(=O)c2cnccn2)c(O)c1	inconclusive: -2.43
CN(C(=O)COC(=O)c1ccc2c(=O)n3c(nc2c1)CCC3)C1CCS(=O)(=O)C1 (centres undefined)	inactive: -2.99
CC[n+]1c(/C=C2\C=C(C)CC(C)C2)sc2ccccc21 (centres undefined)	inconclusive: -3.02
COc1ccc(-c2c[n+]3c(n2-c2ccccc2)CCCCC3)cc1	inconclusive: -1.59
O=S1(=O)c2cccc3cccc(c23)N1Cc1nnc(-c2ccccc2Br)o1	inconclusive: 0.07

Exported as labelled records: part of the list above
CN(c1ccccc1)c1nc(N)c([N+](=O)[O-])c(N2CCCCC2)n1
  z-score: inactive: -1.12
CCN(CC)c1ccc(/C=C(\C#N)c2nc(-c3cccs3)c(NC(C)=O)s2)cc1
  z-score: active: 16.9

Later entries:

Compound	z-score
NC(N)=N/N=C/c1c(Cl)cccc1Cl	inconclusive: 3.16
CCOc1ccc(N/C=C/C(=O)c2ccccc2)c([N+](=O)[O-])c1	inactive: -0.6
CCOc1cccc(C2c3c(oc4cc(C)c(C)cc4c3=O)C(=O)N2CCCN(C)C)c1 (centres undefined)	inconclusive: -3.91
O=[N+]([O-])c1ccc(N=Nc2c(Cl)cc(O)cc2Cl)cc1	inconclusive: -5.38
CC(C)CC(NC(=O)C1CCC(C)CC1)C(=O)NCc1cccnc1 (centres undefined)	inconclusive: -2.03
Cc1ccc(NC(=O)/C=C/c2ccc([N+](=O)[O-])s2)c(C)c1	active: 13.3
O=C1C(Nc2ccccc2)=C/C(=N/S(=O)(=O)c2cccs2)c2ccccc21	inconclusive: -3.54
Cc1cc2oc(=O)cc(Cn3ncc(Cl)c(Cl)c3=O)c2cc1Cl	inconclusive: -2.68
Cc1cc(=O)[nH]c(SCc2cccc(Br)c2)n1	inactive: 0.78
O=C(Nc1ccc2c(c1)OCO2)c1ccc2c(c1)OCO2	inconclusive: -4.38
CCCCn1c(=N)n(CC(O)COc2ccccc2)c2ccccc21 (centres undefined)	inconclusive: -0.01
CCC(=Nc1ccc(Cc2ccncc2)cc1)c1c(O)n(C)c(=O)n(C)c1=O	inconclusive: -2.17
CCCCCCCn1c2c(c(=N)c3ccccc31)CCC2	inconclusive: -1.74
COC(=O)C1=NNCC12CC(=O)N(c1ccc(Br)cc1)C2=O (centres undefined)	inconclusive: -4.5
CN(C)c1nc(=Nc2cccc(Cl)c2)ss1	inconclusive: -3.47
CC(C)Cc1nnc(NC(=O)CCC(=O)N2CCN(S(=O)(=O)c3ccccc3)CC2)s1	inactive: 0.55
C=CCNC(=O)C(=O)NCCOc1ccccc1Cl	inactive: 0.81
O=C(O)CCCCCN1C(=O)/C(=C\c2ccc(-c3ccc(Cl)cc3)o2)SC1=S	active: 4.23
Cc1ccc(C)c(N2CCN(C(c3ccc(N(C)C)cc3)c3nnnn3C(C)(C)C)CC2)c1 (centres undefined)	inconclusive: -1.01
CC(C)NC(=O)N1CCN(c2ccncc2S(=O)(=O)N2CCOCC2)CC1	active: 5.83
COC(=O)c1cc(Cl)c(N)cc1OC	inconclusive: -0.31
Oc1ccc(Nc2nc(N3CCCC3)c3ccccc3n2)cc1	inconclusive: -2.05
CC(=O)C1=C(C)NC(SCC(=O)c2cc(Cl)ccc2Cl)=C(C#N)C1c1ccco1 (centres undefined)	inactive: -1.56

Compound	z-score
CCN(CC(=O)NCCc1ccccc1)S(=O)(=O)c1ccc(C)cc1	inconclusive: -6.64
CCOC(=O)C1(CCCc2ccccc2)CCN(Cc2cnn(C)c2)CC1	inactive: -0.31
CCN1CCS/C1=C\C=C\C1=[N+](CC)CCS1	inconclusive: -4.1
Cn1cnnc1SCC(=O)Nc1ncc(C(F)(F)F)cc1Cl	inactive: 0.07
O=C(Cc1nc(-c2ccc([N+](=O)[O-])cc2)cs1)Nc1ccccc1	active: 8.58
COc1cccc(C2(O)CC(C(F)(F)F)=NN2C(=O)c2ccccn2)c1 (centres undefined)	inactive: -0.17
O=C(Nc1ccccc1Cl)/C(Cl)=C(\Cl)S(=O)c1ccccc1 (centres undefined)	inconclusive: -3
COC(=O)c1ccc(C(=O)OC)c(NC(=S)N2CCN(c3cccc(Cl)c3)CC2)c1	inactive: -0.2
COc1cc(/C=N/Nc2nc(Nc3ccc(C)cc3)nc(-n3nc(C)cc3C)n2)cc(OC)c1OC	inconclusive: -0.04
Cc1cc2nc3c(=O)n(Cc4ccccc4)c(=O)[nH]c3nc2cc1N	active: 12.1
CCCC1CC(C)(c2csc(Nc3ccc(OCC)cc3)n2)OC1=O (centres undefined)	inconclusive: -2.06
O=C(Nc1nnc(-c2ccc3c(c2)CCCC3)o1)C1COc2ccccc2O1 (centres undefined)	inconclusive: -3.49
CCN1C(=O)/C(=C/c2ccc(N3CCCC3)cc2)NC1=S	active: 15.8
CCOC(=O)[C@@H]1C(c2c(OC)cc(OC)cc2OC)=NO[C@@H]1C(=O)OCC	inconclusive: -2.51
C/C(CC(=O)Nc1c(C)cc(C)cc1C)=N\NC(=O)OC(C)(C)C	inconclusive: -5.68
CCCCCOc1ccc(CSCCNC(=S)Nc2ccccc2)cc1	inactive: 1.03
COCCNC(=O)c1onc(CSc2cccc(C)c2)c1C(=O)O	active: 3.82
CCCC(=O)N1c2ccccc2C(=C2SC(C(=O)OC)=C(C(=O)OC)S2)C(=S)C1(C)C	inconclusive: -2.11
COc1ccccc1N1CCN(C(c2ccccc2)c2nnnn2CCc2ccccc2)CC1 (centres undefined)	inconclusive: -1.94
CCN(CC)Cc1cc2[nH]c3c4ccc(Cl)cc4ncc3c2cc1OC	inconclusive: -3.25

Entries from the list above that have bromine (4):
Compound	z-score
CC(C)(C)c1cc(CSC(=S)NC2CCS(=O)(=O)C2)c(Br)c(C(C)(C)C)c1 (centres undefined)	inactive: -0.32
O=S1(=O)c2cccc3cccc(c23)N1Cc1nnc(-c2ccccc2Br)o1	inconclusive: 0.07
Cc1cc(=O)[nH]c(SCc2cccc(Br)c2)n1	inactive: 0.78
COC(=O)C1=NNCC12CC(=O)N(c1ccc(Br)cc1)C2=O (centres undefined)	inconclusive: -4.5
